Data as given in PubChem BioAssay AID1508597 (Cure First, 2020)

Screen: 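Knock-downs altering ovarian cancer cell survival with or without PARP inhibitor rucaparib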 (primary screen)
Cells: human ovarian carcinoma lines grown from tumours: OCI-P5x (papillary serous) and OCI-C5x (clear cell)
Knock-down reagent: siRNA pool against human genes, 1.25 pmol siRNA per well
Time to read-out: 72 h or 96 h, depending on the cell culture
Treatment: rucaparib 20 µM (about IC30) or vehicle, present until read-out
Read-out: 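ATP luminescence measured at 72 or 96 h according to the culture, then normalised and expressed as percent viability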
Reading the numbers: viability, normalised: higher = more viable cells remaining
Active means: 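Active when normalised viability falls below 80 percent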
Meaning of the calls: active = viability under 80%; inactive = viability 80% or more
Shown is a random part of about 2,100 reagents. 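Calls flag viability under 80% in either arm, not effects specific to rucaparib; the reference for percent is not stated.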 The record does not give: the 100% reference.

The opening 10 records, to show the layout:
Target gene	rucaparib or vehicle	cell line	technical replicate	viability, normalised (%)	Outcome
MAPK6	Rucaparib	OCI-C5x (clear cell)	1	63.3	active
MAPK6	Rucaparib	OCI-C5x (clear cell)	2	61.7	active
MAPK6	Rucaparib	OCI-C5x (clear cell)	3	47.9	active
MAPK6	Rucaparib	OCI-P5x (serous)	1	79.7	active
MAPK6	Rucaparib	OCI-P5x (serous)	2	80.6	inactive
MAPK6	Rucaparib	OCI-P5x (serous)	3	62.5	active
MAPK6	Vehicle	OCI-C5x (clear cell)	1	60.1	active
MAPK6	Vehicle	OCI-C5x (clear cell)	2	57.8	active
MAPK6	Vehicle	OCI-C5x (clear cell)	3	48	active
MAPK6	Vehicle	OCI-P5x (serous)	1	93.2	inactive

The listing, from the start:
Target gene	rucaparib or vehicle	cell line	technical replicate	viability, normalised (%)	Outcome
MAPK6	Rucaparib	OCI-C5x (clear cell)	1	63.3	active
MAPK6	Rucaparib	OCI-C5x (clear cell)	2	61.7	active
MAPK6	Rucaparib	OCI-C5x (clear cell)	3	47.9	active
MAPK6	Rucaparib	OCI-P5x (serous)	1	79.7	active
MAPK6	Rucaparib	OCI-P5x (serous)	2	80.6	inactive
MAPK6	Rucaparib	OCI-P5x (serous)	3	62.5	active
MAPK6	Vehicle	OCI-C5x (clear cell)	1	60.1	active
MAPK6	Vehicle	OCI-C5x (clear cell)	2	57.8	active
MAPK6	Vehicle	OCI-C5x (clear cell)	3	48	active
MAPK6	Vehicle	OCI-P5x (serous)	1	93.2	inactive
MAPK6	Vehicle	OCI-P5x (serous)	2	84.6	inactive
MAPK6	Vehicle	OCI-P5x (serous)	3	52.4	active
SENP5	Rucaparib	OCI-C5x (clear cell)	1	55	active
SENP5	Rucaparib	OCI-C5x (clear cell)	2	64.6	active
SENP5	Rucaparib	OCI-C5x (clear cell)	3	52.3	active
SENP5	Rucaparib	OCI-P5x (serous)	1	77.7	active
SENP5	Rucaparib	OCI-P5x (serous)	2	72.6	active
SENP5	Rucaparib	OCI-P5x (serous)	3	42.2	active
SENP5	Vehicle	OCI-C5x (clear cell)	1	61.3	active
SENP5	Vehicle	OCI-C5x (clear cell)	2	53.8	active
SENP5	Vehicle	OCI-C5x (clear cell)	3	44.2	active
SENP5	Vehicle	OCI-P5x (serous)	1	59.2	active
SENP5	Vehicle	OCI-P5x (serous)	2	49.3	active
SENP5	Vehicle	OCI-P5x (serous)	3	66.3	active
CSNK1A1	Rucaparib	OCI-C5x (clear cell)	1	50.6	active
CSNK1A1	Rucaparib	OCI-C5x (clear cell)	2	37.2	active
CSNK1A1	Rucaparib	OCI-C5x (clear cell)	3	62.6	active
CSNK1A1	Rucaparib	OCI-P5x (serous)	1	84.9	inactive
CSNK1A1	Rucaparib	OCI-P5x (serous)	2	83	inactive
CSNK1A1	Rucaparib	OCI-P5x (serous)	3	99.3	inactive
CSNK1A1	Vehicle	OCI-C5x (clear cell)	1	58	active
CSNK1A1	Vehicle	OCI-C5x (clear cell)	2	40.8	active
CSNK1A1	Vehicle	OCI-C5x (clear cell)	3	56.9	active
CSNK1A1	Vehicle	OCI-P5x (serous)	1	65.8	active
CSNK1A1	Vehicle	OCI-P5x (serous)	2	77.7	active
CSNK1A1	Vehicle	OCI-P5x (serous)	3	67.2	active
RINT1	Rucaparib	OCI-C5x (clear cell)	1	55	active
RINT1	Rucaparib	OCI-C5x (clear cell)	2	52.2	active
RINT1	Rucaparib	OCI-C5x (clear cell)	3	54.6	active
RINT1	Rucaparib	OCI-P5x (serous)	1	76	active
RINT1	Rucaparib	OCI-P5x (serous)	2	77.1	active
RINT1	Rucaparib	OCI-P5x (serous)	3	79.7	active
RINT1	Vehicle	OCI-C5x (clear cell)	1	74	active
RINT1	Vehicle	OCI-C5x (clear cell)	2	58.8	active
RINT1	Vehicle	OCI-C5x (clear cell)	3	50.7	active
RINT1	Vehicle	OCI-P5x (serous)	1	61.7	active
RINT1	Vehicle	OCI-P5x (serous)	2	74.3	active
RINT1	Vehicle	OCI-P5x (serous)	3	75.2	active
PRDM15	Rucaparib	OCI-C5x (clear cell)	1	45.5	active
PRDM15	Rucaparib	OCI-C5x (clear cell)	2	46.4	active
PRDM15	Rucaparib	OCI-C5x (clear cell)	3	30.4	active
PRDM15	Rucaparib	OCI-P5x (serous)	1	53.6	active
PRDM15	Rucaparib	OCI-P5x (serous)	2	61.5	active
PRDM15	Rucaparib	OCI-P5x (serous)	3	50.2	active
PRDM15	Vehicle	OCI-C5x (clear cell)	1	43.4	active
PRDM15	Vehicle	OCI-C5x (clear cell)	2	47.2	active
PRDM15	Vehicle	OCI-C5x (clear cell)	3	35.2	active
PRDM15	Vehicle	OCI-P5x (serous)	1	73.5	active
PRDM15	Vehicle	OCI-P5x (serous)	2	76	active
PRDM15	Vehicle	OCI-P5x (serous)	3	93.1	inactive
MKNK2	Rucaparib	OCI-C5x (clear cell)	1	69	active
MKNK2	Rucaparib	OCI-C5x (clear cell)	2	63.7	active
MKNK2	Rucaparib	OCI-C5x (clear cell)	3	70.2	active
MKNK2	Rucaparib	OCI-P5x (serous)	1	89.6	inactive
MKNK2	Rucaparib	OCI-P5x (serous)	2	81.9	inactive
MKNK2	Rucaparib	OCI-P5x (serous)	3	76.2	active
MKNK2	Vehicle	OCI-C5x (clear cell)	1	62.3	active
MKNK2	Vehicle	OCI-C5x (clear cell)	2	83.2	inactive
MKNK2	Vehicle	OCI-C5x (clear cell)	3	65.2	active
MKNK2	Vehicle	OCI-P5x (serous)	1	81.9	inactive
MKNK2	Vehicle	OCI-P5x (serous)	2	81.4	inactive
MKNK2	Vehicle	OCI-P5x (serous)	3	86.7	inactive
PKLR	Rucaparib	OCI-C5x (clear cell)	1	65.3	active
PKLR	Rucaparib	OCI-C5x (clear cell)	2	46.2	active
PKLR	Rucaparib	OCI-C5x (clear cell)	3	66.5	active
PKLR	Rucaparib	OCI-P5x (serous)	1	100	inactive
PKLR	Rucaparib	OCI-P5x (serous)	2	93.2	inactive
PKLR	Rucaparib	OCI-P5x (serous)	3	99.9	inactive
PKLR	Vehicle	OCI-C5x (clear cell)	1	79.9	active
PKLR	Vehicle	OCI-C5x (clear cell)	2	70.6	active
PKLR	Vehicle	OCI-C5x (clear cell)	3	59.5	active
PKLR	Vehicle	OCI-P5x (serous)	1	92.8	inactive
PKLR	Vehicle	OCI-P5x (serous)	2	94.9	inactive
PKLR	Vehicle	OCI-P5x (serous)	3	106	inactive
